From paper PMC12311189
These are yes or no findings as the source states them, for the method shown. Binding seen in cells or lysates may run through a third protein. Some binding calls cover weakened binding; strength is not graded here.

Protein sequences, listed by entry. Tags and fused reporters are not part of them.
UniProt Q92731: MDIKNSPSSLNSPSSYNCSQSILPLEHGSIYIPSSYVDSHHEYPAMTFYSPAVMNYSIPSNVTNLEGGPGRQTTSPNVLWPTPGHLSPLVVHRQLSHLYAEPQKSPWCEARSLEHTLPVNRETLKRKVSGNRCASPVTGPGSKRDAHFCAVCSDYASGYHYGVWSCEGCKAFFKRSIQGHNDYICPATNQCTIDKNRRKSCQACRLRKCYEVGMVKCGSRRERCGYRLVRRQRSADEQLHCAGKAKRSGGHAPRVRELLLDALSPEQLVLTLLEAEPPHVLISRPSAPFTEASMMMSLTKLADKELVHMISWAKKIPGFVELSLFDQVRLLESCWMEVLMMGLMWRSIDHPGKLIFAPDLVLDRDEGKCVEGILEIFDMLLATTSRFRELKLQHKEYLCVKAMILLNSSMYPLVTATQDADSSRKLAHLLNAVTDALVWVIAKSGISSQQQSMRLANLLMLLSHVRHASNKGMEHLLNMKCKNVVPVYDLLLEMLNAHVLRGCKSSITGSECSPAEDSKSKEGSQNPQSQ
UniProt Q9H765: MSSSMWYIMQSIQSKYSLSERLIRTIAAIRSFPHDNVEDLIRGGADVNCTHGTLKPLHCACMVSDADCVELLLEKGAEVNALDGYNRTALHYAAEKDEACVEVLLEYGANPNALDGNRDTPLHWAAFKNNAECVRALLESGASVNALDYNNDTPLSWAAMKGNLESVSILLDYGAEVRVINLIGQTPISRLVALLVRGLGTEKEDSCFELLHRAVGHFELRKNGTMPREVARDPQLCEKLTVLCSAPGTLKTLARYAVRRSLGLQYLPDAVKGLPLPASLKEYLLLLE

Tests used:
[1] = target: ERβ, exogenous (transfected) (UniProt Q92731); assay: co-IP; exogenous (transfected) proteins; lysates in IP buffer, antibody and protein A/G magnetic beads overnight at 4 °C, then immunoblotting; cells and tags not shown
[2] = target: ERβ (estrogen receptor beta), endogenous (human (endogenous in H1793 and H1975)) (UniProt Q92731); assay: co-IP; endogenous proteins; H1793 and H1975 lysates in IP buffer, immunoprecipitated with antibodies against ERβ or ASB8 and protein A/G magnetic beads overnight at 4 °C, then immunoblotting

Row | binding [1] | binding [2] | Substance
1 | binds | – | ASB8, exogenous (transfected) (from UniProt Q9H765 1-288)
2 | – | binds | ASB8, endogenous (from UniProt Q9H765 1-288)
